Assay results as given in PubChem BioAssay AID2685 (National Center for Advancing Translational Sciences (NCATS), 2010).
The whole screen tested about 320,000 compounds, of which about 2,100 (0.66%) were called active. Calls come from the whole dose curve; as a rule, active = well fitted inhibition curve with a large enough effect in the signal ratio, with a control signal flat (not every such curve was filed as active); inconclusive = small, poorly fitted or top-dose-only effect, or effect the other way, or a change in a side signal; inactive = flat fitted curve, though single readings scatter; the % refers to the signal ratio. Inconclusive results, whose numbers are uncertain, are shown. Potencies of inconclusive entries are doubtful fits and often do not repeat.

assay: qHTS Assay for Lipid Storage Modulators in Drosophila S3 Cells; conditions: BODIPY lipid droplet fluorescence, 18-24 h, cells fed with added oleic acid; lipid storage change, negative = inhibition: at 46.1 µM (top of the series) unless noted
Method in brief: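 Drosophila S3 cells got compounds at several concentrations plus oleic acid (400 uM solution). Laser-scanning cytometry with 488 nm excitation read lipid droplets at 500-530 nm and cells at 575-640 nm. Percent activity was relative to 20 uM Triacsin C.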
% is set by controls: 0 for no effect and ±100 for the full control effect; potency is the fitted concentration of half-maximal effect.

Lipid storage change, negative = inhibition, inconclusive:
C/C(CC(O)(/C=N/O)c1ccccc1)=N\O (stereo unspecified) 17.9%
Cc1c(NC(=O)Cn2cc([N+](=O)[O-])cn2)c(=O)n(-c2ccccc2)n1C 19%
O=C(C1CCCN1S(=O)(=O)c1cccc2nsnc12)N1CCCCCC1 (stereo unspecified) 6.22%
CCNCC(=O)Nc1c(C)cccc1C 6.9%
CC(NC(=O)/C(C#N)=C1\N=C(NC(=O)c2cccs2)c2ccccc21)c1ccccc1 (stereo unspecified) -23.7%
CSCC[C@H](NC(=O)[C@H](Cc1ccccc1)n1c(=O)[nH]c2ccccc2c1=O)C(=O)NCC1CCC(C(=O)O)CC1 (stereo partly specified) -35%
CCOc1ccc(C(=O)Nc2ccc(S(=O)(=O)Nc3cc(C)on3)cc2)cc1 65.7%
O=C(NCc1ccc(F)cc1)C1CCN(S(=O)(=O)N2CCCC2)CC1 -0.381%
Nc1[nH]c(N=NC(=O)c2ccccc2)c2ccccc12 17.2%
CCc1nnc(NC(=O)c2sc3nc4cc(C)ccc4cc3c2N)s1 233%
CCOC(=O)COc1cc(N)c(Cl)cc1Cl -11.1%
COc1ccccc1C(=O)NCCC(=O)N1CCCCCCC1 39.4%
CN1CCN(c2ccc([N+](=O)[O-])cc2NC(=O)c2ccco2)CC1 9.23%

Potency, inconclusive:
CC(C)NC(=S)NN=C1c2ccccc2-c2ccccc21 2.06 µM [activator, partial curve]
Cn1c(=O)[nH]c(=O)c2c1nc(Br)n2CCCc1ccccc1 0.517 µM [activator, partial curve]
Cc1cc(C)c2c(=O)c3c(oc2c1)C(=O)N(CCO)C3c1cccc(O)c1 (stereo unspecified) 9.2 µM [activator, partial curve]
COc1ccc(NC(=O)c2ccc(OCc3c(C)noc3C)c(OC)c2)cn1 0.461 µM [falling, single point]
CCOC(=O)c1c(NC(=O)CN2C(=O)NC3(CCCCC3)C2=O)sc(C)c1-c1ccc(C)cc1 18.4 µM [falling, single point]
CCCCn1c(=S)[nH]c2ncccc2c1=O 16.4 µM [activator, single point]
COc1ccc(N=Nc2cc(-c3ccccc3)ccc2O)cc1 6.51 µM [falling, single point]
O=C(Nc1ccc(N2CCCC2)c(Cl)c1)c1ccc(Br)o1 1.03 µM [activator, full curve, poor fit]

Already shown: two of the compounds above.
Potency, inconclusive:
CCCCn1c(=S)[nH]c2ncccc2c1=O 16.4 µM [activator, single point]
COc1ccc(N=Nc2cc(-c3ccccc3)ccc2O)cc1 6.51 µM [falling, single point]
